These results are taken from patent US20190271710A1.

No constants are given. Whether binding was seen depends on the method and setting. For some of these results: Binding can be weak; no strength is given.

Experiment [1] deals with tau in Common Marmoset CSF (Common Marmoset (Callithrix jacchus)). In words: Simoa sandwich assays on Common Marmoset CSF at various dilutions.
The target of experiment [2] is tau in Cynomolgus Macaque CSF (Cynomolgus Macaque (Macaca fascicularis)). Description: Simoa sandwich assays on Cynomolgus Macaque CSF at various dilutions.

B1: pT82 mAb (antibody, V domains shown)
VH: EVKLEESGGGLVQPGGSMKLSCVASGFTFSNYWMNWIRQSPEKGLEWVAQIRLQSDNYATRYAESVKGRFTISRDESKTSVYLQMNNLRTEDTGIYYCTGGTTYWGQGTLVTVSA
VL: DIVMTQSQKFMSTSVGDRVSITCKASQNVGTAVAWYQQKPGQSPKLLIYSASIRYTGVPDRFTGSGSGTDFTLTINYMQSEDLADYFCQQFSSYPYTFGGGTKLEIK
Take B1: the binding result in experiment [1] is listed as “binds”.

B2: pT3 mouse monoclonal antibody (antibody, V domains shown)
VH: EVKLVESGGDLVKPGGSLKLSCAASGFTFSSYAMSWVRQNPEKRLEWVASISKGGNTYYPNSVKGRFTISRDNARNILYLQMSSLRSEDTALYYCARGWGDYGWFAYWGQVTLVTVSA
VL: DIKMTQSPSSMYASLGERVTITCKASQDINRYLNWFQQKPGKSPKTLIYRANRLLDGVPSRFSGSGSGQDYSLTISSLDYEDMGIYYCLQYDEFPLTFGDGTKLELK
As to B2, the binding entry in experiment [1] is listed as “binds”; in experiment [2], “no binding”.

B3: hT43 mAb (antibody, V domains shown)
VH: EVKLVESGGDLVKPGGSLKLSCAASGFTFRSYGMSWVRQTPDKRLEWVTTINSDGSYTYYPDSVKGRFTISRDNAKNTLYLQMSSLKSEDTAMYYCAVSWDGAMDYWGQGTSVTVSS
VL: DVLVTQTPLSLPVSLGDQASISCRSSQSILHSNGNTYFEWYLQRPGQSPKLLIYKVSNRFSGVPDRFSGSGSGTDFTLKISRVEAEDLGVYYCFQGSLVPWTFGGGTKLEIK
Regarding B3, the binding entry in experiment [1] is “no binding”.
